Source: paper PMC11523043
No constants are given. Whether binding was seen depends on the method and setting. Binding seen in cells or lysates may run through a third protein. Some binding calls cover weakened binding; strength is not graded here. Tags and fused reporters may be left off the sequences shown. Values belong to the binder of their own block, whether it stands above or below them.

Assays:
[1] = biological target: T1, Flag-Nol9 N-terminal domain (amino acids 1-300) (human) (UniProt Q5SY16); test: co-IP; H1299 cells co-transfected with V5-USP36 and Flag-Las1L or Flag-Nol9 or their deletion mutants; Co-IP with anti-Flag antibody, followed by IB
T1 sequence: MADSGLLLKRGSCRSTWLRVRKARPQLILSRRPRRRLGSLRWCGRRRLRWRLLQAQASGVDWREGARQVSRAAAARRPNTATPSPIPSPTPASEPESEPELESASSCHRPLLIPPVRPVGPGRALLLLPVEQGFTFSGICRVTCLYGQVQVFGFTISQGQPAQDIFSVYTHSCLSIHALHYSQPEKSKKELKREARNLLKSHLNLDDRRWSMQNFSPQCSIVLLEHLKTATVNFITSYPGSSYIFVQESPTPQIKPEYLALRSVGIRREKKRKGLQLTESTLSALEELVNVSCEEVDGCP

[2] = biological target: T2, Flag-Las1L middle coiled-coil domain (amino acids 189-613) (UniProt Q9Y4W2); test: as above
T2 sequence: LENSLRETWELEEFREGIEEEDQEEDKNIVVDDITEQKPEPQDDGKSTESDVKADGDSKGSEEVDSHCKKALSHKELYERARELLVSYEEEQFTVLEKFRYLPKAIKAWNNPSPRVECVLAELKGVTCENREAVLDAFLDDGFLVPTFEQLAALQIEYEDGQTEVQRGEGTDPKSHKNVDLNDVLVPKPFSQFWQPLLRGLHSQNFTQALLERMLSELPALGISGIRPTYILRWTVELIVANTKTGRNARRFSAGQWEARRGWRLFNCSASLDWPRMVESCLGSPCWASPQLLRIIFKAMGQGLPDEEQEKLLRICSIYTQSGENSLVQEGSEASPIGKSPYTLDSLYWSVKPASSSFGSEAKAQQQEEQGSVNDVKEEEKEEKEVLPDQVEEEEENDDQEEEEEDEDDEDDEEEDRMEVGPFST

Flag-tagged USP36 [3] = biological target: T3, Flag-tagged USP36 (UniProt Q9P275); test: co-IP; Co-IP experiments of Supplementary Fig. S4; cells and bait not given
T3 sequence: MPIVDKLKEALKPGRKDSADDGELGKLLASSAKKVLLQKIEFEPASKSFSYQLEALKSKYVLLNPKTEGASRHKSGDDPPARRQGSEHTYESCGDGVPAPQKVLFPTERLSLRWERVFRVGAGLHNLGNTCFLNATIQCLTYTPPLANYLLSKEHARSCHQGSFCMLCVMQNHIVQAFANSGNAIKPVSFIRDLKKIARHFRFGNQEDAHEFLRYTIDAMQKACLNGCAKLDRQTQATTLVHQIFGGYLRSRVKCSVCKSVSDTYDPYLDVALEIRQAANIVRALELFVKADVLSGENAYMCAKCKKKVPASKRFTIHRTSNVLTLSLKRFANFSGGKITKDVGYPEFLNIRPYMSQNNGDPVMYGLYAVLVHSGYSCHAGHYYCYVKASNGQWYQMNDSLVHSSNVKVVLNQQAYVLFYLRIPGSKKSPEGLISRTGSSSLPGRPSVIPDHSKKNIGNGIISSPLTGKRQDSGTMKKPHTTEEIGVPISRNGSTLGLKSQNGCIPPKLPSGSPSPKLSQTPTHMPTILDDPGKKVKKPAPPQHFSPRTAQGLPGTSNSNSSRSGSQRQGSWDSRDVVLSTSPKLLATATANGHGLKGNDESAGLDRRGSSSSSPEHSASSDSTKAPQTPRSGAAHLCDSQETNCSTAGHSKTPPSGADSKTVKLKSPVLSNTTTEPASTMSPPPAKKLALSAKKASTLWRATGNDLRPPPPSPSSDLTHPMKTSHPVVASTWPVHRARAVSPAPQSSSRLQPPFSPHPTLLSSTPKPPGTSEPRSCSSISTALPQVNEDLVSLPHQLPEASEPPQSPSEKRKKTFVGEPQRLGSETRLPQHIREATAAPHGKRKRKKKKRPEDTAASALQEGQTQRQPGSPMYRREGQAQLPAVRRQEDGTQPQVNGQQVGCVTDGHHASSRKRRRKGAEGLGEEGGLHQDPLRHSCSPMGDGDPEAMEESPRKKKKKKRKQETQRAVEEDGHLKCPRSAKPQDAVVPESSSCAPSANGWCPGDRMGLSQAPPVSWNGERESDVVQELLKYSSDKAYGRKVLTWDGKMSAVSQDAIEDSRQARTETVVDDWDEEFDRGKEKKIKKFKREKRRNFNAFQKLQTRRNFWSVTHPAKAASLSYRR

Flag-tagged USP36 [4] = biological target: T3, Flag-tagged USP36; test: co-IP; soluble nucleolar fraction of HeLa cells stably expressing Flag-USP36 (high-salt RIPA lysis, diluted), anti-Flag antibody, followed by IB
Flag-tagged USP36 [5] = biological target: T3, Flag-tagged USP36; test: co-IP; lysates of cells (HEK293, HeLa or H1299) transfected with the Flag-tagged bait, anti-Flag (M2) agarose, 4°C for 4 hours, 50 mmol/L Tris-HCl pH 8.0, 0.5% Nonidet P-40, 150 mmol/L NaCl; endogenous partner detected by IB; for Flag-USP36 also in the presence of 100 μg/mL RNase A and 100 U/mL RNase T1
[6] = biological target: T4, Flag-USP36 C-terminal nucleolar localization signal (NoLS)-containing region (amino acids 801-1121) (UniProt Q9P275); test: as above
T4 sequence: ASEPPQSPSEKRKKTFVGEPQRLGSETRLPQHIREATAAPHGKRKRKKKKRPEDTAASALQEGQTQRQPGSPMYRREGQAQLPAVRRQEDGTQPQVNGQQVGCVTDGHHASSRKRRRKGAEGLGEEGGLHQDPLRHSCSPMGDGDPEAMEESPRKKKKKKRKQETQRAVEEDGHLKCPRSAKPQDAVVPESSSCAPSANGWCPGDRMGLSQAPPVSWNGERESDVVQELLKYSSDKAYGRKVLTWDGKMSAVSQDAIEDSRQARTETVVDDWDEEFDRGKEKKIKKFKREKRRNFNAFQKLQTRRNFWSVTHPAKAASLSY

binding [1]: binds
binding [2]: binds
B1: V5-tagged USP36 (enzyme, UniProt Q9P275 1-1123)
chain: T3 sequence

binding (Flag-tagged USP36 [3]): binds
B2: TEX10 (protein, UniProt Q9NXF1 1-929)
chain: MTKKRKRQHDFQKVKLKVGKKKPKLQNATPTNFKTKTIHLPEQLKEDGTLPTNNRKLNIKDLLSQMHHYNAGVKQSALLGLKDLLSQYPFIIDAHLSNILSEVTAVFTDKDANVRLAAVQLLQFLAPKIRAEQISPFFPLVSAHLSSAMTHITEGIQEDSLKVLDILLEQYPALITGRSSILLKNFVELISHQQLSKGLINRDRSQSWILSVNPNRRLTSQQWRLKVLVRLSKFLQALADGSSRLRESEGLQEQKENPHATSNSIFINWKEHANDQQHIQVYENGGSQPNVSSQFRLRYLVGGLSGVDEGLSSTENLKGFIEIIIPLLIECWVEAVPPQLATPVGNGIEREPLQVMQQVLNIISLLWKLSKQQDETHKLESWLRKNYLIDFKHHFMSRFPYVLKEITKHKRKEPNKSIKHCTVLSNNIDHLLLNLTLSDIMVSLANASTLQKDCSWIEMIRKFVTETLEDGSRLNSKQLNRLLGVSWRLMQIQPNREDTETLIKAVYTLYQQRGLILPVRTLLLKFFSKIYQTEELRSCRFRYRSKVLSRWLAGLPLQLAHLGSRNPELSTQLIDIIHTAAARANKELLKSLQATALRIYDPQEGAVVVLPADSQQRLVQLVYFLPSLPADLLSRLSRCCIMGRLSSSLAAMLIGILHMRSSFSGWKYSAKDWLMSDVDYFSFLFSTLTGFSKEELTWLQSLRGVPHVIQTQLSPVLLYLTDLDQFLHHWDVTEAVFHSLLVIPARSQNFDILQSAISKHLVGLTVIPDSTAGCVFGVICKLLDHTCVVSETLLPFLASCCYSLLYFLLTIEKGEAEHLRKRDKLWGVCVSILALLPRVLRLMLQSLRVNRVGPEELPVVGQLLRLLLQHAPLRTHMLTNAILVQQIIKNITTLKSGSVQEQWLTDLHYCFNVYITGHPQGPSALATVY

binding (Flag-tagged USP36 [3]): binds
B3: WDR18 (protein, UniProt Q9BV38 1-432)
chain: MAAPMEVAVCTDSAAPMWSCIVWELHSGANLLTYRGGQAGPRGLALLNGEYLLAAQLGKNYISAWELQRKDQLQQKIMCPGPVTCLTASPNGLYVLAGVAESIHLWEVSTGNLLVILSRHYQDVSCLQFTGDSSHFISGGKDCLVLVWSLCSVLQADPSRIPAPRHVWSHHALPITDLHCGFGGPLARVATSSLDQTVKLWEVSSGELLLSVLFDVSIMAVTMDLAEHHMFCGGSEGSIFQVDLFTWPGQRERSFHPEQDAGKVFKGHRNQVTCLSVSTDGSVLLSGSHDETVRLWDVQSKQCIRTVALKGPVTNAAILLAPVSMLSSDFRPSLPLPHFNKHLLGAEHGDEPRHGGLTLRLGLHQQGSEPSYLDRTEQLQAVLCSTMEKSVLGGQDQLRVRVTELEDEVRNLRKINRDLFDFSTRFITRPAK

binding (Flag-tagged USP36 [4]): binds
binding (Flag-tagged USP36 [5]): binds
binding [6]: binds
B4: endogenous Nol9 (enzyme, UniProt Q5SY16 1-702)
chain: MADSGLLLKRGSCRSTWLRVRKARPQLILSRRPRRRLGSLRWCGRRRLRWRLLQAQASGVDWREGARQVSRAAAARRPNTATPSPIPSPTPASEPESEPELESASSCHRPLLIPPVRPVGPGRALLLLPVEQGFTFSGICRVTCLYGQVQVFGFTISQGQPAQDIFSVYTHSCLSIHALHYSQPEKSKKELKREARNLLKSHLNLDDRRWSMQNFSPQCSIVLLEHLKTATVNFITSYPGSSYIFVQESPTPQIKPEYLALRSVGIRREKKRKGLQLTESTLSALEELVNVSCEEVDGCPVILVCGSQDVGKSTFNRYLINHLLNSLPCVDYLECDLGQTEFTPPGCISLLNITEPVLGPPFTHLRTPQKMVYYGKPSCKNNYENYIDIVKYVFSAYKRESPLIVNTMGWVSDQGLLLLIDLIRLLSPSHVVQFRSDHSKYMPDLTPQYVDDMDGLYTKSKTKMRNRRFRLAAFADALEFADEEKESPVEFTGHKLIGVYTDFAFRITPRNRESHNKILRDLSILSYLSQLQPPMPKPLSPLHSLTPYQVPFNAVALRITHSDVAPTHILYAVNASWVGLCKIQDDVRGYTNGPILLAQTPICDCLGFGICRGIDMEKRLYHILTPVPPEELRTVNCLLVGAIAIPHCVLKCQRGIEGTVPYVTTDYNFKLPGASEKIGAREPEEAHKEKPYRRPKFCRKMK
